Entries after “also recorded” stand apart in the source; their conditions may differ.
Tested on: human
Conditions: for ability to take naps / dreams / normality of sleep: inventor's observation

Structure (SMILES) | ability to take naps | dreams / normality of sleep | change over time of the amount needed to get to sleep (tolerance) (extended use)
Cc1ccc(-c2nc3ccc(C)cn3c2CC(=O)N(C)C)cc1 [zolpidem] | Naps were not possible; also recorded: prevents naps | did not have dreams | –
OCCOCCN1CCN(C2=Nc3ccccc3Sc3ccccc32)CC1 [quetiapine] | could again nap in the afternoon | dreams returned | did not increase
